Laboratory results as given in PMC10662051.
No constants are given. Whether binding was seen depends on the method and setting. Binding seen in cells or lysates may run through a third protein. Some binding calls cover weakened binding; strength is not graded here.

By UniProt entry, the sequences of proteins in these tests, tags left out.
UniProt Q9UJW0: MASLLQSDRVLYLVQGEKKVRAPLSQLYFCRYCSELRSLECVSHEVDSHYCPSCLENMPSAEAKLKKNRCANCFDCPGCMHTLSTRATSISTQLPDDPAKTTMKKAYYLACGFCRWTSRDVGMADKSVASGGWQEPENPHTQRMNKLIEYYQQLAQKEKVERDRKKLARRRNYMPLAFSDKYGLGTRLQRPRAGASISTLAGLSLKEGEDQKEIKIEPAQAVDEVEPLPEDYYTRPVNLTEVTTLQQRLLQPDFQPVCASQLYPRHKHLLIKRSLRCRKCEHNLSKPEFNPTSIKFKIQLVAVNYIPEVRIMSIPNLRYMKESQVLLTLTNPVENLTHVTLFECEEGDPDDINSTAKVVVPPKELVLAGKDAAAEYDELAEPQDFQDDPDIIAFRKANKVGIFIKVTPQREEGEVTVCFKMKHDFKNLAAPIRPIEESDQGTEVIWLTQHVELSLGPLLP
UniProt Q13561: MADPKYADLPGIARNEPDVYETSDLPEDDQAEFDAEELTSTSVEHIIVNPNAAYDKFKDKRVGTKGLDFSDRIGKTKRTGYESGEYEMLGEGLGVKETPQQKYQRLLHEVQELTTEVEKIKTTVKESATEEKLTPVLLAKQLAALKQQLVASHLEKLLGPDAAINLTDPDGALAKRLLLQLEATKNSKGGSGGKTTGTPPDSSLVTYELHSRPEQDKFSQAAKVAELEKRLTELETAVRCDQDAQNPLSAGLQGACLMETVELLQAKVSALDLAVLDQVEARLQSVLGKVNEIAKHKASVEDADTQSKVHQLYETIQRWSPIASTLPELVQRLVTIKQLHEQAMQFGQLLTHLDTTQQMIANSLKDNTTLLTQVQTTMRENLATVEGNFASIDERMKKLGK

Biological target: dynactin p62 with C-terminal Twin-Strep affinity tag (bait for the dynactin complex) (UniProt Q9UJW0)
Experiment: pull-down; p62-TwinStrep expressed in HEK293F as bait, clarified lysate on streptactin beads 120 min at 4 °C, eluted with 2.5 mM d-desthiobiotin, Superose 6 SEC; subunits identified by SDS-PAGE and Western blot

| Substance | binding |
| --- | --- |
| dynactin p50 (from UniProt Q13561 1-401) | binds |
| dynactin p150 (from UniProt Q14203-1 1-1278) | binds |
